The target in this test is Transient Receptor Potential Cation Channel Subfamily M Member 7 (TRPM7) (human (endogenous in PANC-1, MIA PaCa-2 and HPNE)) (UniProt Q96QT4). As to the kind of experiment: co-IP; PDAC cells (cell line not given, Fig. S1); co-immunoprecipitation of TRPM7 and RhoA.

Protein sequences, listed by entry. Tags and fused reporters are not part of them.
UniProt Q96QT4: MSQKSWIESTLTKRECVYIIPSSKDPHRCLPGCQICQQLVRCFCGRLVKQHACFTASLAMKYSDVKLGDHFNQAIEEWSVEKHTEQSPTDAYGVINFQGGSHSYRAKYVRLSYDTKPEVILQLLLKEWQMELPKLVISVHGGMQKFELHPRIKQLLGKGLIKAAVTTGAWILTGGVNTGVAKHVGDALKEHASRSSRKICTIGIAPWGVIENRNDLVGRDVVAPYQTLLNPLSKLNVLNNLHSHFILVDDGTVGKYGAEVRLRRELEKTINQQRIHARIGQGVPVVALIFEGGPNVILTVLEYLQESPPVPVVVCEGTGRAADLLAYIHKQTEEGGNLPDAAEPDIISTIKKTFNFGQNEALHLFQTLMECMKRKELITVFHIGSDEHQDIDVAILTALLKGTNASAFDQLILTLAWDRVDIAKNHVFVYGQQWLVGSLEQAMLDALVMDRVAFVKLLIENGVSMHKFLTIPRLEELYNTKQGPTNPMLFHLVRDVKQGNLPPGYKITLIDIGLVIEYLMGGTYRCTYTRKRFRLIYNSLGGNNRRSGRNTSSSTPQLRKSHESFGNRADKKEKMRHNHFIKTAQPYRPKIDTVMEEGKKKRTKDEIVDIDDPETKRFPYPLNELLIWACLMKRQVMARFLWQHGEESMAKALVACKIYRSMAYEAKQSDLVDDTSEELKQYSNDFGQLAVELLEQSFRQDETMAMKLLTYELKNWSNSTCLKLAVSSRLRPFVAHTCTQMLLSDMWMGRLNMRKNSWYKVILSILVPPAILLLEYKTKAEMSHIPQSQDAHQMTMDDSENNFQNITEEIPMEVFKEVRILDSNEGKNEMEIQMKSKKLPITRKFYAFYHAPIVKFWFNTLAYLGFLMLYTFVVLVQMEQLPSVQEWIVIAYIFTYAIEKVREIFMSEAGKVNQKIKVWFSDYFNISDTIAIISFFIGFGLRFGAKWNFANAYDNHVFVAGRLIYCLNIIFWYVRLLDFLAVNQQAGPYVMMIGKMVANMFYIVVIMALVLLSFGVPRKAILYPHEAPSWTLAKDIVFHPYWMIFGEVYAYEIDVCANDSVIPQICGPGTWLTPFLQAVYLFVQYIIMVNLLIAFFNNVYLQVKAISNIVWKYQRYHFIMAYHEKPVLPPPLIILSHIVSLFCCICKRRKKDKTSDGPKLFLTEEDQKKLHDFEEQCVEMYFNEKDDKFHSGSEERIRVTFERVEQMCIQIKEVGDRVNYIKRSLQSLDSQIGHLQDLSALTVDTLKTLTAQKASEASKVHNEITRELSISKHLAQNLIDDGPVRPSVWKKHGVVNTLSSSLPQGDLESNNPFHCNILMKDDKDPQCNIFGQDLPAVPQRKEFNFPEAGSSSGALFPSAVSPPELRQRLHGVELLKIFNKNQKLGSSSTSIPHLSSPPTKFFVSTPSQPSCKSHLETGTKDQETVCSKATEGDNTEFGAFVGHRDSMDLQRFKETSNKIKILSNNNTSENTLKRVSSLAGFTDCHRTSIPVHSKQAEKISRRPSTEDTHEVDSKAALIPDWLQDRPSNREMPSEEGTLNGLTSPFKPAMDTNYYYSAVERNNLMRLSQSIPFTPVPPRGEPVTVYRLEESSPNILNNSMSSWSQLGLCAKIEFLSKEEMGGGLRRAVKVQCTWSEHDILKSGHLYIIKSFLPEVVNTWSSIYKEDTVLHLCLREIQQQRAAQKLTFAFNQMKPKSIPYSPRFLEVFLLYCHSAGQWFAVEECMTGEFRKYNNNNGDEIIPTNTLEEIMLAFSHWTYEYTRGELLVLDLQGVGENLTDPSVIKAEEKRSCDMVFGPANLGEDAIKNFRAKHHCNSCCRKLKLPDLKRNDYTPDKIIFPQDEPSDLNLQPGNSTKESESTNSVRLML
UniProt P61586: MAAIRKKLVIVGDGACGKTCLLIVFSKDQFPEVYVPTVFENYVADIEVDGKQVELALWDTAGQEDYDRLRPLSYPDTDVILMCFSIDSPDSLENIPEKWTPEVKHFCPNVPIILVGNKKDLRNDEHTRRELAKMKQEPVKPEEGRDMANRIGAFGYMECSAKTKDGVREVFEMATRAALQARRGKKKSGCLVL

These are yes or no findings as the source states them, for the method shown. In cells and extracts the contact can be indirect. Some results given as binding are weak or reduced against the parent protein; the word gives no strength.

Take RhoA (from UniProt P61586 1-193): the binding result is reported as “binds”.

The values are drawn from paper PMC12022261.
